According to paper PMC10933267:
Read-outs that look alike come from different tables or passages of the source. These are yes or no findings as the source states them, for the method shown. Binding seen in cells or lysates may run through a third protein. A yes stands for co-enrichment or nearness to the bait. Other partners may have been found. For part of these data: A no says only that the protein was not detected with the bait. Values belong to the molecule of their own block, whether it stands above or below them.

The chains behind the UniProt entries cited, without tags or fusion partners.
UniProt O43186: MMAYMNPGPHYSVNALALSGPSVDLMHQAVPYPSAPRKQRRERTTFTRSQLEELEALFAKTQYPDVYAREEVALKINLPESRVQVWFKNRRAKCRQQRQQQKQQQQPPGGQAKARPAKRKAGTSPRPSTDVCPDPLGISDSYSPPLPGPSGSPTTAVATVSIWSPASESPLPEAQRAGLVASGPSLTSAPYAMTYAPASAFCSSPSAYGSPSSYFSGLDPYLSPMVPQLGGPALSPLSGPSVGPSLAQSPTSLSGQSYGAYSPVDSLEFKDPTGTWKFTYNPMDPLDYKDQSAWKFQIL
UniProt P32242: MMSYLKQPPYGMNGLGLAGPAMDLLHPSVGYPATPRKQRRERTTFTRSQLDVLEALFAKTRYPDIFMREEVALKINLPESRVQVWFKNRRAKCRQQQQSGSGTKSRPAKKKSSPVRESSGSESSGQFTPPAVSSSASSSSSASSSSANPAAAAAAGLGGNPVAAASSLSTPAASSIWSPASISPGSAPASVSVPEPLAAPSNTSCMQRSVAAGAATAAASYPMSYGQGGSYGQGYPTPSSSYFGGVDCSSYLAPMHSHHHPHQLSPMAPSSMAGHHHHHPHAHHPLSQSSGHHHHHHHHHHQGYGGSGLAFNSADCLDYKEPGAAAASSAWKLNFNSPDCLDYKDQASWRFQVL
UniProt P32243: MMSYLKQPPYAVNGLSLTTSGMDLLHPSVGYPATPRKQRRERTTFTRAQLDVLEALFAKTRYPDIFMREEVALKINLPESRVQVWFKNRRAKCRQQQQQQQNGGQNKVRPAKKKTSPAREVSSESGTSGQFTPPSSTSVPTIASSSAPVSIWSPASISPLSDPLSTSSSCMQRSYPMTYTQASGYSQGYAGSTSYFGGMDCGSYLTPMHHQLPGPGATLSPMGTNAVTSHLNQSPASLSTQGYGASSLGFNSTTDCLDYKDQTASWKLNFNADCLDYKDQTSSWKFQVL
UniProt O75362: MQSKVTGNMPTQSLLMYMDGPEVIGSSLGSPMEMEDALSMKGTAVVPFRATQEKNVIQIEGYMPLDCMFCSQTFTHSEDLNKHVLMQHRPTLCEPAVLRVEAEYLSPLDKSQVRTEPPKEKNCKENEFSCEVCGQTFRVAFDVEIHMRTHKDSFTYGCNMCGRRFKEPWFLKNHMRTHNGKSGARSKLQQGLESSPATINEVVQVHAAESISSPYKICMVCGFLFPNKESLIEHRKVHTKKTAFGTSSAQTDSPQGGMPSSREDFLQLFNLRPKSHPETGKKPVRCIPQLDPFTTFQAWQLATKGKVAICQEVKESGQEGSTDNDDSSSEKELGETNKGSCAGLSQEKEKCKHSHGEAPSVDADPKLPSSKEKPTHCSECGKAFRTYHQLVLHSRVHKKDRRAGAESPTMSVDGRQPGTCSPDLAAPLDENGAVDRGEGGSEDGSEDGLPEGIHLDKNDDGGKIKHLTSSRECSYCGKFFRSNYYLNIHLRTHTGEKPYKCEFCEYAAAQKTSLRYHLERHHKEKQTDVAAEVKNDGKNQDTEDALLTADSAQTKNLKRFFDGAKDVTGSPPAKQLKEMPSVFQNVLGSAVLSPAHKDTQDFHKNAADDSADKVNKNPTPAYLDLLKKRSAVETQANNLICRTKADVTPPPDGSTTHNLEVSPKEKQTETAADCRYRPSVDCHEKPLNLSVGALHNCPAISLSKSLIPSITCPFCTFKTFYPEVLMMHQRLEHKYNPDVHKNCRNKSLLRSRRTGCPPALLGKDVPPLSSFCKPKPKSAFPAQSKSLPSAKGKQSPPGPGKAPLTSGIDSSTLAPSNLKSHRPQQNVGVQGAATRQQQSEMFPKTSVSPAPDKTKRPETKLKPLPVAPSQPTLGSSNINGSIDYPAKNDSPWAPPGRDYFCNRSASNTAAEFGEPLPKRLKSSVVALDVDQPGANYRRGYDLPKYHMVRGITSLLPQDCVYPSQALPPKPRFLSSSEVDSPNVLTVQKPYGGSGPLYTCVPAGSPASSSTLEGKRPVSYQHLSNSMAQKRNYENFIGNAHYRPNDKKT
UniProt Q09472: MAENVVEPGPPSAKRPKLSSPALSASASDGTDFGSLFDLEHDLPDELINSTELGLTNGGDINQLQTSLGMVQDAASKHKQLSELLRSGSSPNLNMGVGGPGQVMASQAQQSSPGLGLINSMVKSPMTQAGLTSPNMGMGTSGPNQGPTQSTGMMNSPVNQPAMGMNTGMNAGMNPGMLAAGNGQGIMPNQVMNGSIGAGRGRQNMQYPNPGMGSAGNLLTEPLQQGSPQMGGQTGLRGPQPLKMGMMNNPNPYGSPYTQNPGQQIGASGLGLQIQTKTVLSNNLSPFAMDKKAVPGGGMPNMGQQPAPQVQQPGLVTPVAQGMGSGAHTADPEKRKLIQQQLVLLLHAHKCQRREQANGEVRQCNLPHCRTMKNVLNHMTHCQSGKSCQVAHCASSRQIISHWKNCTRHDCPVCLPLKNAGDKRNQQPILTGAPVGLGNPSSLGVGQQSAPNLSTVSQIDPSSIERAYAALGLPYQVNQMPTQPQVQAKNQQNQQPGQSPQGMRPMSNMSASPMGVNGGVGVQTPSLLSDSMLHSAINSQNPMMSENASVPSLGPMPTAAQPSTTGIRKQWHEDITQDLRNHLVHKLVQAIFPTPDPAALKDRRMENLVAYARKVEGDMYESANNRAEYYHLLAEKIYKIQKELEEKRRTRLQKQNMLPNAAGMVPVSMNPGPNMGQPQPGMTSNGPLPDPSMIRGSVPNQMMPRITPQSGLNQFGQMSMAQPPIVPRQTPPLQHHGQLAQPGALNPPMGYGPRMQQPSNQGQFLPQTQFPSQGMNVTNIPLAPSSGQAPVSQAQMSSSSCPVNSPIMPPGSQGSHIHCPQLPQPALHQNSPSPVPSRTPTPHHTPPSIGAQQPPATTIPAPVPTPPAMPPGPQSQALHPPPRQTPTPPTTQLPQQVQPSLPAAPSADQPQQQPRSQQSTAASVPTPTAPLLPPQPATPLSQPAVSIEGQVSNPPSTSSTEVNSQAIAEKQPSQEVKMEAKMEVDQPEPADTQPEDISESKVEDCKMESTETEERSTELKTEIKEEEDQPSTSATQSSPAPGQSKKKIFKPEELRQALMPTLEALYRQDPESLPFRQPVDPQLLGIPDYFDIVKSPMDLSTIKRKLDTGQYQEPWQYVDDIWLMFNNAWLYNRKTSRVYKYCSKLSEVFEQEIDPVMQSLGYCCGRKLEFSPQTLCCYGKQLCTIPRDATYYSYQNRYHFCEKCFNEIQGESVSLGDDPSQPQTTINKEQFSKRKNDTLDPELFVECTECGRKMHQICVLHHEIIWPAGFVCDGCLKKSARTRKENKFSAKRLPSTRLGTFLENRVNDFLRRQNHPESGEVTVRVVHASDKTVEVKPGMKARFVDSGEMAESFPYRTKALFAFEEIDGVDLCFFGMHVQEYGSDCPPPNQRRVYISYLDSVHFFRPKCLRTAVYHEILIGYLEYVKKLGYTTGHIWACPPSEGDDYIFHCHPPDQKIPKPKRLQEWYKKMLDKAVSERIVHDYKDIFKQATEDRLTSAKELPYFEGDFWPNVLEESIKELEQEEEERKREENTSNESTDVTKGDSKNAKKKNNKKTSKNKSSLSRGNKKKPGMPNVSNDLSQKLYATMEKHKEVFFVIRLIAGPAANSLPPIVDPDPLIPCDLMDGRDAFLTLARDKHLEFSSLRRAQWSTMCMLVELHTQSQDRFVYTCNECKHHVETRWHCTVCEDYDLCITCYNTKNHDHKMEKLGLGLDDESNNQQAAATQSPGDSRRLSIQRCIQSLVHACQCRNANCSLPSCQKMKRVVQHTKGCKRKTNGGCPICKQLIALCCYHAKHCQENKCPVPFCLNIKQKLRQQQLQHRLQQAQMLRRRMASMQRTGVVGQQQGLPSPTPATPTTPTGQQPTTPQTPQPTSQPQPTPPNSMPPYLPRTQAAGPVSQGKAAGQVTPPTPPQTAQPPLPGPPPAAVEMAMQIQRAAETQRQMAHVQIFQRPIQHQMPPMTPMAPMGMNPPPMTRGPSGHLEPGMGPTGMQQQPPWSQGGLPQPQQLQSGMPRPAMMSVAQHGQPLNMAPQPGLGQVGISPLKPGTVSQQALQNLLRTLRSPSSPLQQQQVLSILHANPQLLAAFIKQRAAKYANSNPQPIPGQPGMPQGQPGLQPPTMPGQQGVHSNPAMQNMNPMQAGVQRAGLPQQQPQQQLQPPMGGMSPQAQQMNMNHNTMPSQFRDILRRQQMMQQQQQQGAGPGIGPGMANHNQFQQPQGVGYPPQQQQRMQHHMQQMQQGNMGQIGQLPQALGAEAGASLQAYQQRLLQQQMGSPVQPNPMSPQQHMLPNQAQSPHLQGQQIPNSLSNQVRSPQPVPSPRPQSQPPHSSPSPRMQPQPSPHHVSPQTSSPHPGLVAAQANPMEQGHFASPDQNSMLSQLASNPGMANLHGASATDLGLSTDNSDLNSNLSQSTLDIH

Assays:
ARGFX (human) = biological target: T1, ARGFX (human) (UniProt A6NJG6); test: proximity labelling; BioID-MS: MAC-tagged bait (BirA) in stable Flp-In T-REx 293 cells, tetracycline and 50 µM biotin for 24 h; lysate with Benzonase, sonicated; Strep-Tactin beads; LC-MS; high-confidence interactions by SAINTexpress BFDR < 0.01 and a GFP BioID contaminant database
T1 sequence: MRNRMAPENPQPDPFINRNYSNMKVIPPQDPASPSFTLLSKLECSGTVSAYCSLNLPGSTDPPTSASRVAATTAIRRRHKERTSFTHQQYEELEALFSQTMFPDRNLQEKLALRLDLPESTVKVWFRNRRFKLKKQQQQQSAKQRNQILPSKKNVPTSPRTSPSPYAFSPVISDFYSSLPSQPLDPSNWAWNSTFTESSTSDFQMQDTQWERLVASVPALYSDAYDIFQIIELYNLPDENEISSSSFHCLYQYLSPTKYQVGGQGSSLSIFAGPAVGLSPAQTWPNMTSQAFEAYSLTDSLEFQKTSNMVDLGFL

CRX (human) [1] = biological target: CRX (human) (UniProt O43186); test: as above
DPRX (human) = biological target: T2, DPRX (human) (UniProt A6NFQ7); test: as above
T2 sequence: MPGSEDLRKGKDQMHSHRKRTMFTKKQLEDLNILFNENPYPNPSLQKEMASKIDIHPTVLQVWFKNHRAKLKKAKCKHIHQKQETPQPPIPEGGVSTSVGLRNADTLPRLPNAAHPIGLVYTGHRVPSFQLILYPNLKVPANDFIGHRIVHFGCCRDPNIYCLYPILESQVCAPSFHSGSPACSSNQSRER

OTX1 (human) = OTX1 (human) (UniProt P32242); test: as above
OTX2 (human) = OTX2 (human) (UniProt P32243); test: as above
TPRX1 (human) = biological target: T3, TPRX1 (human) (UniProt Q8N7U7); test: as above
T3 sequence: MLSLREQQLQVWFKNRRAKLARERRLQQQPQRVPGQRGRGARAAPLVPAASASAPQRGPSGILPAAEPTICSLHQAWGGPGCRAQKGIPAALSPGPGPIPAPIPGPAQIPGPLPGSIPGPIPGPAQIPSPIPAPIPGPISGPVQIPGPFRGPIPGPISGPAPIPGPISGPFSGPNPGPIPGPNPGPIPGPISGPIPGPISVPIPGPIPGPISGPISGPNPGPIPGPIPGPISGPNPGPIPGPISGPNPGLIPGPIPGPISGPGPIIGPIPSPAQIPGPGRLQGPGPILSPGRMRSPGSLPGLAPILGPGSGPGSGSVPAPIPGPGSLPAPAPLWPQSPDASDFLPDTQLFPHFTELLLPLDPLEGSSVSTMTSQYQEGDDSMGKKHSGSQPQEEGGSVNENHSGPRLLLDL

TPRX2 (human) [2] = biological target: T4, TPRX2 (human) (UniProt P0DV77); test: as above
T4 sequence: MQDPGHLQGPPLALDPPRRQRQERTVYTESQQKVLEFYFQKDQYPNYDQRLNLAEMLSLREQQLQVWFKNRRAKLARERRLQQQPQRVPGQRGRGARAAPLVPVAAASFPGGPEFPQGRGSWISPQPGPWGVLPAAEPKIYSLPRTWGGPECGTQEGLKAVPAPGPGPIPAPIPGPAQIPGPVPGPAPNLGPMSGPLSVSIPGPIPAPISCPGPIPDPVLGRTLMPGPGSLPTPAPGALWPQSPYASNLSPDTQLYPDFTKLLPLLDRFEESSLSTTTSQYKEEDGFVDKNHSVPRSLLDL

ZSCAN4 (human) = biological target: T5, ZSCAN4 (human) (UniProt Q8NAM6); test: affinity purification with mass spectrometry; AP-MS: MAC-tagged bait in stable Flp-In T-REx 293 cells, 2 µg/ml tetracycline for 24 h; lysate (1% n-dodecyl beta-D-maltoside, 150 mM NaCl, pH 8.0) on Strep-Tactin beads, eluted with biotin; LC-MS; SAINTexpress BFDR < 0.01 and CRAPome filter
T5 sequence: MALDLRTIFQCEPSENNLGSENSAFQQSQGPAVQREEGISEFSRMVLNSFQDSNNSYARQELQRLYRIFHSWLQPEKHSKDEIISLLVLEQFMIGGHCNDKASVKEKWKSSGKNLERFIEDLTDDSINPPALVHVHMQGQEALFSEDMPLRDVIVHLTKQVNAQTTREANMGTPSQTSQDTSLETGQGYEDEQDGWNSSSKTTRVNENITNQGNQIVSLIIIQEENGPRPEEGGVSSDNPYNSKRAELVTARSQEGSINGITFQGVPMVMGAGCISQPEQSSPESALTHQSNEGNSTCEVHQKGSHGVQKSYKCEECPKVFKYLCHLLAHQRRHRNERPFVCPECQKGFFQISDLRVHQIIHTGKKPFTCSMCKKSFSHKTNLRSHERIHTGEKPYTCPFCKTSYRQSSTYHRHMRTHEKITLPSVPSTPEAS

CRX (human) [3] = biological target: CRX (human) (UniProt O43186); test: proximity labelling; BioID-MS: MAC-tagged bait (BirA) in stable Flp-In T-REx 293 cells, tetracycline and 50 µM biotin for 24 h; lysate with Benzonase, sonicated; Strep-Tactin beads; LC-MS; high-confidence interactions by SAINTexpress BFDR < 0.01 and a GFP BioID contaminant database; remark: listed apart in the source
EGR2 (human) = EGR2 (human) (UniProt P11161); test: as above
TPRX2 (human) [4] = biological target: T4, TPRX2 (human); test: as above; remark: listed apart in the source
DPPA3 (human) = biological target: T6, DPPA3 (human) (UniProt Q6W0C5); test: affinity purification with mass spectrometry; AP-MS: MAC-tagged bait in stable Flp-In T-REx 293 cells, 2 µg/ml tetracycline for 24 h; lysate (1% n-dodecyl beta-D-maltoside, 150 mM NaCl, pH 8.0) on Strep-Tactin beads, eluted with biotin; LC-MS; SAINTexpress BFDR < 0.01 and CRAPome filter
T6 sequence: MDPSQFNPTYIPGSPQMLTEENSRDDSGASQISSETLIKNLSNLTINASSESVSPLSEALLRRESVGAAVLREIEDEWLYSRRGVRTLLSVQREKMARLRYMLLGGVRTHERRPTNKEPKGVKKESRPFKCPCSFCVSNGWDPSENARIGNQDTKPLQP

Molecule: ZNF217 (from UniProt O75362 1-1048)
binding (ZSCAN4 (human)): binds

B2: UHRF2 (protein, UniProt Q96PU4 1-802)
chain: MWIQVRTIDGSKTCTIEDVSRKATIEELRERVWALFDVRPECQRLFYRGKQLENGYTLFDYDVGLNDIIQLLVRPDPDHLPGTSTQIEAKPCSNSPPKVKKAPRVGPSNQPSTSARARLIDPGFGIYKVNELVDARDVGLGAWFEAHIHSVTRASDGQSRGKTPLKNGSSCKRTNGNIKHKSKENTNKLDSVPSTSNSDCVAADEDVIYHIQYDEYPESGTLEMNVKDLRPRARTILKWNELNVGDVVMVNYNVESPGQRGFWFDAEITTLKTISRTKKELRVKIFLGGSEGTLNDCKIISVDEIFKIERPGAHPLSFADGKFLRRNDPECDLCGGDPEKKCHSCSCRVCGGKHEPNMQLLCDECNVAYHIYCLNPPLDKVPEEEYWYCPSCKTDSSEVVKAGERLKMSKKKAKMPSASTESRRDWGRGMACVGRTRECTIVPSNHYGPIPGIPVGSTWRFRVQVSEAGVHRPHVGGIHGRSNDGAYSLVLAGGFADEVDRGDEFTYTGSGGKNLAGNKRIGAPSADQTLTNMNRALALNCDAPLDDKIGAESRNWRAGKPVRVIRSFKGRKISKYAPEEGNRYDGIYKVVKYWPEISSSHGFLVWRYLLRRDDVEPAPWTSEGIERSRRLCLRLQYPAGYPSDKEGKKPKGQSKKQPSGTTKRPISDDDCPSASKVYKASDSAEAIEAFQLTPQQQHLIREDCQNQKLWDEVLSHLVEGPNFLKKLEQSFMCVCCQELVYQPVTTECFHNVCKDCLQRSFKAQVFSCPACRHDLGQNYIMIPNEILQTLLDLFFPGYSKGR
binding (DPPA3 (human)): binds

The next lines start with the values.

binding (ARGFX (human)): binds | binding (CRX (human) [1]): binds | binding (DPRX (human)): no binding | binding (OTX1 (human)): binds | binding (OTX2 (human)): binds | binding (TPRX1 (human)): binds | binding (TPRX2 (human) [2]): binds
Molecule: EP300 (from UniProt Q09472 1-2414)

binding (CRX (human) [3]): binds | binding (EGR2 (human)): binds | binding (TPRX2 (human) [4]): binds
B1: TRERF1 (protein, UniProt Q96PN7 1-1200)
chain: MGDQQLYKTNHVAHGSENLFYQQPPLGVHSGLNHNYGNAVTGGGMDAPQASPISPHFPQDTRDGLGLPVGSKNLGQMDTSRQGGWGSHAGPGNHVQLRGNLANSNMMWGAPAQAEPTDGYQYTYSQASEIRTQKLTSGVLHKLDSFTQVFANQNLRIQVNNMAQVLHTQSAVMDGAPDSALRQLLSQKPMEPPAPAIPSRYQQVPQQPHPGFTGGLSKPALQVGQHPTQGHLYYDYQQPLAQVPVQGGQPLQAPQMLSQHMQQMQQHQYYPPQQQQQAGQQRISMQEIQTQPQQIRPSQPQPPPQQQQPQQLQLQQRQGSMQIPQYYQPQPMMQHLQEQQQQQMHLQPPSYHRDPHQYTPEQAHTVQLIPLGSMSQYYYQEPQQPYSHPLYQQSHLSQHQQREDSQLKTYSSDRQAQAMLSSHGDLGPPDTGMGDPASSDLTRVSSTLPHRPLLSPSGIHLNNMGPQHQQLSPSAMWPQMHLPDGRAQPGSPESSGQPKGAFGEQFDAKNKLTCSICLKEFKNLPALNGHMRSHGGMRASPNLKQEEGEKVLPPQPQPPLPPPPPPPPPPQLPPEAESLTPMVMPVSVPVKLLPPKPSSQGFTNSTVAAPSARDKPASSMSDDEMPVLEIPRKHQPSVPKAEEPLKTVQEKKKFRHRPEPLFIPPPPSYNPNPAASYSGATLYQSQLRSPRVLGDHLLLDPTHELPPYTPPPMLSPVRQGSGLFSNVLISGHGPGAHPQLPLTPLTPTPRVLLCRSNSIDGSNVTVTPGPGEQTVDVEPRINIGLRFQAEIPELQDISALAQDTHKATLVWKPWPELENHDLQQRVENLLNLCCSSALPGGGTNSEFALHSLFEAKGDVMVALEMLLLRKPVRLKCHPLANYHYAGSDKWTSLERKLFNKALATYSKDFIFVQKMVKSKTVAQCVEYYYTWKKIMRLGRKHRTRLAEIIDDCVTSEEEEELEEEEEEDPEEDRKSTKEEESEVPKSPEPPPVPVLAPTEGPPLQALGQPSGSFICEMPNCGAVFSSRQALNGHARIHGGTNQVTKARGAIPSGKQKPGGTQSGYCSVKSSPSHSTTSGETDPTTIFPCKECGKVFFKIKSRNAHMKTHRQQEEQQRQKAQKAAFAAEMAATIERTTGPVGAPGLLPLDQLSLIKPIKDVDILDDDVVQQLGGVMEEAEVVDTDLLLDDQDSVLLQGDAEL
